The target in experiment [1] is collagen alpha-3 (VI) (human) (UniProt P12111). Briefly: ELISA, collagen coated on plate, biotinylated peptide detected with HRP-streptavidin, A490. Binding was not mutually dose-dependent.
For experiment [2], the target named is collagen alpha-1 (XII) (human) (UniProt Q99715). Briefly: ELISA, collagen coated on plate (collagen alpha-1 (XII) at 3.3 ug/mL for the peptide titration), biotinylated peptide detected with HRP-streptavidin, A490. Background: ELISA stands for enzyme-linked immunosorbent assay.
Experiment [3] shares this target. Briefly: ELISA, collagen coated on plate, biotinylated peptide detected with HRP-streptavidin.
In experiment [4] the target is collagen alpha-3 (VI) (human) (UniProt P12111). The experiment is described as above.

Amino acid sequences for entries named in this document (tags omitted). A change or cut given only in a name is not applied to a line headed by its entry.
UniProt P12111: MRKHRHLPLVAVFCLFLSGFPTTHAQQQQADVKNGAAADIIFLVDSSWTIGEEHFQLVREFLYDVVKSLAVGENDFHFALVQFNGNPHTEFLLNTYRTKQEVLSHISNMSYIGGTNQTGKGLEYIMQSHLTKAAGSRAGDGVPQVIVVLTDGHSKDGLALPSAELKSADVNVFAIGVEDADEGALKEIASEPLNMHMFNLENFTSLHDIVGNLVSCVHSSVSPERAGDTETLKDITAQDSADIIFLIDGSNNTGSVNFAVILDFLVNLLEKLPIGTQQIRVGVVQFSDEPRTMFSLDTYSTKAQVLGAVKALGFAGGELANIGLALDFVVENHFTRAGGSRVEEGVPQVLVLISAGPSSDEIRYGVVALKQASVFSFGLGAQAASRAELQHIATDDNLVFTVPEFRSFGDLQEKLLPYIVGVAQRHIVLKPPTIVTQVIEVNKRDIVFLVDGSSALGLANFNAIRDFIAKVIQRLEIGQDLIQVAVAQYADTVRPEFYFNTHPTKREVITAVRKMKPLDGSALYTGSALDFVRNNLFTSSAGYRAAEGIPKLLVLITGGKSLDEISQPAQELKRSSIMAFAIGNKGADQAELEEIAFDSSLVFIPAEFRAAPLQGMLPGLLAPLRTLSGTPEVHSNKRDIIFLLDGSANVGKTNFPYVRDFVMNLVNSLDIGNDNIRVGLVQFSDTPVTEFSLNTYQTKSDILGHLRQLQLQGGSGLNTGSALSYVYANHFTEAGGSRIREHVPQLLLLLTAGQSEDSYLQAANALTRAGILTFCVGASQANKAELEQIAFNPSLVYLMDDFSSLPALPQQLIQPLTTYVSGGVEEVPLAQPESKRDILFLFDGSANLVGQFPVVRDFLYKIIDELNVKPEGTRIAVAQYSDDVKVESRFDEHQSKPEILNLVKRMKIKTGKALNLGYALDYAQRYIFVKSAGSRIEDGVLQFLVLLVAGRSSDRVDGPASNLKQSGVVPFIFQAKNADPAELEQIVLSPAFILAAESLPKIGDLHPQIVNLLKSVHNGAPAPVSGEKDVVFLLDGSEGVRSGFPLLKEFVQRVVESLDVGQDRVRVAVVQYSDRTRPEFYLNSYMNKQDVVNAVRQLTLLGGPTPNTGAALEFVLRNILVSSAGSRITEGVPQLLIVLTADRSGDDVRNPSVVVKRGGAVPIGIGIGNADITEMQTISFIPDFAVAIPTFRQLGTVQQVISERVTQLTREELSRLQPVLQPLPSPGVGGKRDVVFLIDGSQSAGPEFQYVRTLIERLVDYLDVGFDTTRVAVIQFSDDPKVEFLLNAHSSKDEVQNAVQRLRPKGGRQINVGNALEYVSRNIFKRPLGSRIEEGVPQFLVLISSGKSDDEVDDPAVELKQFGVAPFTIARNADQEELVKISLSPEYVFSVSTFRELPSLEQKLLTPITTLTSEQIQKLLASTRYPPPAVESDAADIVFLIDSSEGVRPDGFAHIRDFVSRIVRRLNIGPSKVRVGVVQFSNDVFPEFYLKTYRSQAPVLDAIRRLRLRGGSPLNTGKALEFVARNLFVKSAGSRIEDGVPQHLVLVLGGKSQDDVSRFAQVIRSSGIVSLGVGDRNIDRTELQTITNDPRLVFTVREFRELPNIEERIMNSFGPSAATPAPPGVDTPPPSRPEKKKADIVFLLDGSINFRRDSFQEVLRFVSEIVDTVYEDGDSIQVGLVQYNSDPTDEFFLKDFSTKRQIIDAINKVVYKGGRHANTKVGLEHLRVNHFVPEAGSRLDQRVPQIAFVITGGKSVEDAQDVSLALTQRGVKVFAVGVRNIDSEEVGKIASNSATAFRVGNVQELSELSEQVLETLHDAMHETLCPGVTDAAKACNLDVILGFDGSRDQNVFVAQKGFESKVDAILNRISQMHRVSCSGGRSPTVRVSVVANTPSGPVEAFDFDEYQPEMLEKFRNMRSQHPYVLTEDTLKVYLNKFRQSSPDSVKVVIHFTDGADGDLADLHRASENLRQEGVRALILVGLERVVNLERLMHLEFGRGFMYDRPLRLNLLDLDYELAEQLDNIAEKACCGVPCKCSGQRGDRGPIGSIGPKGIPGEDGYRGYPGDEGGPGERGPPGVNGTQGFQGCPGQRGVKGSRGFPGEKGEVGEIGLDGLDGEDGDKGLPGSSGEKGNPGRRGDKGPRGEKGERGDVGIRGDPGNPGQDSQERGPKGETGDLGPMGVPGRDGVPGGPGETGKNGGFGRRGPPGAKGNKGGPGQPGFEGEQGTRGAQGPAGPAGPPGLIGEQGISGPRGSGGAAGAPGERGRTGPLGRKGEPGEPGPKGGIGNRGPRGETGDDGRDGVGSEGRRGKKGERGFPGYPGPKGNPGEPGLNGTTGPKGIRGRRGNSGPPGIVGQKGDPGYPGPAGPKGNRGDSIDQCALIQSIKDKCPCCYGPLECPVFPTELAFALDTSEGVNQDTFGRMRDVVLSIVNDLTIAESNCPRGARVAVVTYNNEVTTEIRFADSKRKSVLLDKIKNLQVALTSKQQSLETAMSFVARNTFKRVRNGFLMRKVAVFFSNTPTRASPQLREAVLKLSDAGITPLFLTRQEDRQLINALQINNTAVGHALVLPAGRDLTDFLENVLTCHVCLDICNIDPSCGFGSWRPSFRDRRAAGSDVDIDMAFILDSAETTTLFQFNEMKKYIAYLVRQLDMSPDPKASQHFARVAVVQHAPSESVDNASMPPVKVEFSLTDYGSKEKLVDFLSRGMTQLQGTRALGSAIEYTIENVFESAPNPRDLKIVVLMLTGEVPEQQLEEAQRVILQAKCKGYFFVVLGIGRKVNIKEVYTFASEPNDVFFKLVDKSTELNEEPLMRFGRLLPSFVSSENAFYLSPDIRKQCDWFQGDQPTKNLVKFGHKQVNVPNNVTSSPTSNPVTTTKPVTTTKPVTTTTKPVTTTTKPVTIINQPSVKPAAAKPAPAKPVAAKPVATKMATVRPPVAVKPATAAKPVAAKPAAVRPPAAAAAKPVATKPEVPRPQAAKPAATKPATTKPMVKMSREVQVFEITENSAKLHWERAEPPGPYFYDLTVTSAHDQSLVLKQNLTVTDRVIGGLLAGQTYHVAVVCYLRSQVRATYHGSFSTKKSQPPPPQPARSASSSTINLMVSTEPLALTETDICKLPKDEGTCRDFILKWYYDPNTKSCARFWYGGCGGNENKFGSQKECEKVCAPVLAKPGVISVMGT
UniProt Q99715: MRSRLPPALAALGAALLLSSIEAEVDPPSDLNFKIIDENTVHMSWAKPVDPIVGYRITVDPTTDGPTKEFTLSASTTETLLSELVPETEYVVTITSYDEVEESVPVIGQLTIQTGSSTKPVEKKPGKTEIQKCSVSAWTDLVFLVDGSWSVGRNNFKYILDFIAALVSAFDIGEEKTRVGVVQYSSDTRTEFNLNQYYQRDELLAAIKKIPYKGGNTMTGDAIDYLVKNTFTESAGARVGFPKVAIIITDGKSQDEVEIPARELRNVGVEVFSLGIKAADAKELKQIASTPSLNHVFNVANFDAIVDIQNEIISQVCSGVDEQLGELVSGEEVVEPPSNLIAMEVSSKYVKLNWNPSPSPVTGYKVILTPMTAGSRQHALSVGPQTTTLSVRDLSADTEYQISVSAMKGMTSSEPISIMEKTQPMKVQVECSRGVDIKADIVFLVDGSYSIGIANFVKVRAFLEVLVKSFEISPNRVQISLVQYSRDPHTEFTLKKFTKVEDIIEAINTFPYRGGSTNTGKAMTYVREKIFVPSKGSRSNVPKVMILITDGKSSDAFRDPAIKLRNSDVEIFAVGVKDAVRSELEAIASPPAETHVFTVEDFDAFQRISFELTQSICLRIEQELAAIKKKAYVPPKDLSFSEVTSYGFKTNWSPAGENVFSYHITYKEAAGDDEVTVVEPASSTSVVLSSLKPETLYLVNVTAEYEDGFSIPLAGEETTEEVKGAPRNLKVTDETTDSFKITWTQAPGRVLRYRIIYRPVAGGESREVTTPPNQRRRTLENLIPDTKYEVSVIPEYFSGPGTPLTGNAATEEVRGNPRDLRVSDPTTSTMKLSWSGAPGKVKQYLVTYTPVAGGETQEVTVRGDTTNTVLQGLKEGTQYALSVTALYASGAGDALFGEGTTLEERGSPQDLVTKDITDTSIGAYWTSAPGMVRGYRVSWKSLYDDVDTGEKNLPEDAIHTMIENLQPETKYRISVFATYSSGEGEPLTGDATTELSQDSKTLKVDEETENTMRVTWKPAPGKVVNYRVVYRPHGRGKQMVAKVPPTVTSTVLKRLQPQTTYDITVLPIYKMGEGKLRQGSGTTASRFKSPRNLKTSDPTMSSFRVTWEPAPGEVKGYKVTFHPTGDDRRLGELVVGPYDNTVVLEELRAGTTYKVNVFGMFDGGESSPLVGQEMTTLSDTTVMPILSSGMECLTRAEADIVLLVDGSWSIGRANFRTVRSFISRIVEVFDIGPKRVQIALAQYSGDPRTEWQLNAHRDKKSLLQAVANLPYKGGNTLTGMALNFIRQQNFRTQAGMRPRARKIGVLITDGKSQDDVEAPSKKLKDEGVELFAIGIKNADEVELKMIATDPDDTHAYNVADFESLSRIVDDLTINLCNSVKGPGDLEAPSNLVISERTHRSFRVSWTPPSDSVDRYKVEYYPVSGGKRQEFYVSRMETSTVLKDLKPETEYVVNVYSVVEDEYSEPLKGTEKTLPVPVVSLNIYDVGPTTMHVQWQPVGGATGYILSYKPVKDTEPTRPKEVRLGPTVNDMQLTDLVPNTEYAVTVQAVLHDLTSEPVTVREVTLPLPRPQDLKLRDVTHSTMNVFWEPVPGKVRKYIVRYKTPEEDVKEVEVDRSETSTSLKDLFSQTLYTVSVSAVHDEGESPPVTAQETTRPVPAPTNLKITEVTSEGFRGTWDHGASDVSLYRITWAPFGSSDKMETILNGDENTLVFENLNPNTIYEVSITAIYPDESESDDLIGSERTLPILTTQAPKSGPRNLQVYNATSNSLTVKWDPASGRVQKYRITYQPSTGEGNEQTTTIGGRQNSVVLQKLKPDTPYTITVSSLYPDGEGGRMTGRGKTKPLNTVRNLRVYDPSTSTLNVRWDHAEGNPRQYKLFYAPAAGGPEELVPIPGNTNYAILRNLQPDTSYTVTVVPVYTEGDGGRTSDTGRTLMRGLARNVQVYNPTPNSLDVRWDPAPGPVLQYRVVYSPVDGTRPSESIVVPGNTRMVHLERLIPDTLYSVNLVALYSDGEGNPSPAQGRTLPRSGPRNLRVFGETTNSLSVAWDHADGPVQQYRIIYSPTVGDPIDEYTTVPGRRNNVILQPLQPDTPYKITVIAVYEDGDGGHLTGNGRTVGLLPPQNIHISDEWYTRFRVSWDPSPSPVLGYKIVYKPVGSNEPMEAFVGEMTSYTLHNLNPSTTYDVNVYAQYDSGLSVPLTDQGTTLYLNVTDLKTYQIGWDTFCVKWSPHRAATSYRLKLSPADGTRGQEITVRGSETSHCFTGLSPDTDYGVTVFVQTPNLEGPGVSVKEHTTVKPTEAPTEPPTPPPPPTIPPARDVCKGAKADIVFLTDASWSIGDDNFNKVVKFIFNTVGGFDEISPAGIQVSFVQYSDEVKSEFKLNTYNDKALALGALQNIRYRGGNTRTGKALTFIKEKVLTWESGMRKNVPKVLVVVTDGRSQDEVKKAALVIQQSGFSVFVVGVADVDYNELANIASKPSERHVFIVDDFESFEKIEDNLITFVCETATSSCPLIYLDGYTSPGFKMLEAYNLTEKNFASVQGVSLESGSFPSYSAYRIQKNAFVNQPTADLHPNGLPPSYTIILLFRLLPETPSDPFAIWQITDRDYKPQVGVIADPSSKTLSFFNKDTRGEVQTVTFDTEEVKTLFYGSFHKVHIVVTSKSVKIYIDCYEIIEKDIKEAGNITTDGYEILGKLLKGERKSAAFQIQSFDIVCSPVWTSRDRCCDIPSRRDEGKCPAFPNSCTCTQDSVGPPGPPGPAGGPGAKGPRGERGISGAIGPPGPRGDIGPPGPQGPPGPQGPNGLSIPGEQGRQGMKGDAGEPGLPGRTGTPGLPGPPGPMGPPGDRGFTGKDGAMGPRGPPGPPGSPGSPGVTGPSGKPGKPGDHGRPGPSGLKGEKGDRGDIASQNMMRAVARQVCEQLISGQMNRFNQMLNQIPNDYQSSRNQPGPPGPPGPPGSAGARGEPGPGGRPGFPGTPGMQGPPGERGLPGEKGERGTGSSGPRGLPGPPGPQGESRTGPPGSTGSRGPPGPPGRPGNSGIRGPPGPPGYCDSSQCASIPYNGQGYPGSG

These are yes or no findings as the source states them, for the method shown. For some of these results: A result given as binding can be weak or reduced; the word gives no strength.

DLQYWYPIWDTH (biotinylated (site and linker not stated for the ELISA peptide)) [biotinylated C5-24 peptide]: the binding entry in experiment [1] and in experiment [2] was “binds” throughout.
As to DYLWQYPDITWH (biotinylated (site and linker not stated for the ELISA peptide)) [biotin-scrambled peptide], the binding result in experiment [3] and in experiment [4] was “no binding” throughout.

Source of the values: patent US20230026969A1, “Oligopeptide, Testing Kit Thereof And Medical Composition Thereof” (China Medical University, priority 2019, published 2023).
